Laboratory results published in publication PMC5472764.

By UniProt entry, the sequences of proteins in these tests, tags left out. Where a name states a change or a piece, a line headed by the entry shows the natural chain unless it says otherwise.
UniProt P19174: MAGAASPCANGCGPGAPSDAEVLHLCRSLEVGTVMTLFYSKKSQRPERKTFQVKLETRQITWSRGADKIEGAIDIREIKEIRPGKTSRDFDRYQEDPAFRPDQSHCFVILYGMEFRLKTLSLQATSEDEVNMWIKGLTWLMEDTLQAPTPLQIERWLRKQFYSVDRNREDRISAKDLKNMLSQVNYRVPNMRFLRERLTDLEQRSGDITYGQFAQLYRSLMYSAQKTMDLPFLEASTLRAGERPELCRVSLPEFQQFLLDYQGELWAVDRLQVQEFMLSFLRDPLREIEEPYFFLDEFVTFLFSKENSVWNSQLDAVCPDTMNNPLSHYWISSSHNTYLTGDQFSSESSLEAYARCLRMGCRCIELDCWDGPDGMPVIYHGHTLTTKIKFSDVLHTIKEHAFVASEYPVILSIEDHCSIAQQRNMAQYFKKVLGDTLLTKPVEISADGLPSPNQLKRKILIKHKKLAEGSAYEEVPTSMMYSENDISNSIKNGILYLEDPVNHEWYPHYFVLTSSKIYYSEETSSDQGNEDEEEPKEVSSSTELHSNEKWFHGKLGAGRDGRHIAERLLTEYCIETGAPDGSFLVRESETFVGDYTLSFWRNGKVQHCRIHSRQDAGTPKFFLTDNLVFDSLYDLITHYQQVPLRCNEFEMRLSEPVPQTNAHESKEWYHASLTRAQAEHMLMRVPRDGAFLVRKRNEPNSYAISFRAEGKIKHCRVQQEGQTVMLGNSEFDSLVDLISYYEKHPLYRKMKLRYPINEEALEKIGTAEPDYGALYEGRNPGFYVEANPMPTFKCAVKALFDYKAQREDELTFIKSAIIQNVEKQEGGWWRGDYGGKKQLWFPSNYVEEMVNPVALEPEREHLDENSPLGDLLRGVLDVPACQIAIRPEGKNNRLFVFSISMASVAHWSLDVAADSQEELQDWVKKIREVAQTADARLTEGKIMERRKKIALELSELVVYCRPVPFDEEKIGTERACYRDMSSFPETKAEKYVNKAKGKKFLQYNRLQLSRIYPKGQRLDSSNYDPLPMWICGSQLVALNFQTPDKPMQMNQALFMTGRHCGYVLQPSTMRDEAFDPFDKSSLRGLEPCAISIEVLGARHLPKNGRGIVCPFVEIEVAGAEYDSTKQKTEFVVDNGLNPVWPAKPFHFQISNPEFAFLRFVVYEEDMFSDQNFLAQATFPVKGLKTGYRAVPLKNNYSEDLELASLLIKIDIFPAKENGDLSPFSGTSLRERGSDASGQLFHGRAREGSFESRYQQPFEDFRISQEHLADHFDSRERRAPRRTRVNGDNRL
UniProt P11881: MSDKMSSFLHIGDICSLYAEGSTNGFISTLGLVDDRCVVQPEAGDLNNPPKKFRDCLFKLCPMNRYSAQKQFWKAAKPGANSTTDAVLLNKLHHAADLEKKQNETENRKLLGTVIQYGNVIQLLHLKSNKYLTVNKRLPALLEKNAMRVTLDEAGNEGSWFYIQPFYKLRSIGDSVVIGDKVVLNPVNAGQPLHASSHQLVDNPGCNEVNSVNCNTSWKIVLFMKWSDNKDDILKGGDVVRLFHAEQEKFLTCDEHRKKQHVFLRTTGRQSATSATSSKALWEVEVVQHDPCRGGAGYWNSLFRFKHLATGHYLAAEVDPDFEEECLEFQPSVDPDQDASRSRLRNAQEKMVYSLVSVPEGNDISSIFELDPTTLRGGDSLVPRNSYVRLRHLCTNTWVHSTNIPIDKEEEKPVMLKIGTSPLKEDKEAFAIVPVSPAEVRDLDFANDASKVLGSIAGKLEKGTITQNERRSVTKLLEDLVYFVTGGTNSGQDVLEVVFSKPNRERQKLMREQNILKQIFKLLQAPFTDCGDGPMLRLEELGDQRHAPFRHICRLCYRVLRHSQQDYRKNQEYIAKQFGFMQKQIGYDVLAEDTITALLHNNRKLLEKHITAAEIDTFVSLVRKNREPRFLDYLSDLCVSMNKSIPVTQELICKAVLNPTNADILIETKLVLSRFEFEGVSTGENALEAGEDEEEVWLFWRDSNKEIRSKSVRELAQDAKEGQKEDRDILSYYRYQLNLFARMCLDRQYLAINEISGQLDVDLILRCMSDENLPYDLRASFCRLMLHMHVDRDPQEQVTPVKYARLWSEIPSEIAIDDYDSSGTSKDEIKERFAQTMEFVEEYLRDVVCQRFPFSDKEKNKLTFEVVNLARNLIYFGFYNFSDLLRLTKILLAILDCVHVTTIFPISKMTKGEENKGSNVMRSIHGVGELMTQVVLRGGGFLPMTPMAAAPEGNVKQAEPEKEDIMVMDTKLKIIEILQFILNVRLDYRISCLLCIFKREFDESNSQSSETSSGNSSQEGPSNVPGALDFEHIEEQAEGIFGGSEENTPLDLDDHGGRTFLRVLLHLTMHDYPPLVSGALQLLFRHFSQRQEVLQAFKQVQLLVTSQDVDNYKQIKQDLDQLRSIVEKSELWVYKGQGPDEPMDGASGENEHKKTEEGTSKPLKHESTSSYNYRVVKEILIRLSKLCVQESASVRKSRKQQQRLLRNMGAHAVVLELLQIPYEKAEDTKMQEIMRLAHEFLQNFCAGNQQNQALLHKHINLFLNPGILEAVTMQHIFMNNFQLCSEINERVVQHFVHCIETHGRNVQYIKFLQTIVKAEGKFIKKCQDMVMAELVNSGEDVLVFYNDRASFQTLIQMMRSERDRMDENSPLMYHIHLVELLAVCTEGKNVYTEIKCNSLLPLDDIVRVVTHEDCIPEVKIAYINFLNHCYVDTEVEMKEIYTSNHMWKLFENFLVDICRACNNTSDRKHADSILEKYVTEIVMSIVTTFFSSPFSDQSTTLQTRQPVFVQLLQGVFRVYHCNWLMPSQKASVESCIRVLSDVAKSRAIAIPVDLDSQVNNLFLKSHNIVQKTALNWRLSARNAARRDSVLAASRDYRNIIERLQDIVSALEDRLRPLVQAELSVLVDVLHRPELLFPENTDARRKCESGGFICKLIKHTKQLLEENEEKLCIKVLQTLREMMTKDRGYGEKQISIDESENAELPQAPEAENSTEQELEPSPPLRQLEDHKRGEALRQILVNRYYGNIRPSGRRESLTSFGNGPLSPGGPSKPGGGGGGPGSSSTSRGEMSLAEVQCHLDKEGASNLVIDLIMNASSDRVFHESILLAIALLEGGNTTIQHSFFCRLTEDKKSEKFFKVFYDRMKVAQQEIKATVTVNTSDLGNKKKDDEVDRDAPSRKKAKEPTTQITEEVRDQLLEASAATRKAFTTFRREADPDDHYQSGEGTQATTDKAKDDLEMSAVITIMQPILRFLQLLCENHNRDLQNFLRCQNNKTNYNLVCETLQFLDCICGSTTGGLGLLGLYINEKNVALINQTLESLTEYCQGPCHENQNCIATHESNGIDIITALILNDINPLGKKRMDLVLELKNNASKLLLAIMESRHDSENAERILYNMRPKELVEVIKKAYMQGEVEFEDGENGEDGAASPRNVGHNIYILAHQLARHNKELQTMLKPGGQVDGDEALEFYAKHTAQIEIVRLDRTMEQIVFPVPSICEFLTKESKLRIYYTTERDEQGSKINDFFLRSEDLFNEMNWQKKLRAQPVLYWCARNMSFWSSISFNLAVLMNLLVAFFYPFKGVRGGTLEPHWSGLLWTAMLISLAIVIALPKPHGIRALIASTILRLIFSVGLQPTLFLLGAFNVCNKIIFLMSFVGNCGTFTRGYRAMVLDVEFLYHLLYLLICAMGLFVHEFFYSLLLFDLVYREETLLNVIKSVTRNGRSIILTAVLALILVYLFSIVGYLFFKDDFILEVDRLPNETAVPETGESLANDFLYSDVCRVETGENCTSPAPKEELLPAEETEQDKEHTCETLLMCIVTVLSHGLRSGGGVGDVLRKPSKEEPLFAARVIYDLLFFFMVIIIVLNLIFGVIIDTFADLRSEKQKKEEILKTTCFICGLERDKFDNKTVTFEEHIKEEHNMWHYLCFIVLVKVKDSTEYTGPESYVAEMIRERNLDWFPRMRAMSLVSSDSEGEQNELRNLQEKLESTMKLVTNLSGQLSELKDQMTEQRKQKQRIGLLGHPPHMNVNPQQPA

Experiments:
[1] = target: T1, Flag-tagged full-length Tespa1 (FL) (mouse) (UniProt Q3U132); experiment: co-IP; HEK293 cells co-transfected with Flag-tagged Tespa1 and HA-tagged PLC-γ1 or its mutants; NP-40 lysis buffer (50 mM Tris pH 7.4, 150 mM NaCl, 1% NP-40); anti-Flag beads 4 h at 4 °C; blots with anti-Flag and anti-HA
T1 sequence: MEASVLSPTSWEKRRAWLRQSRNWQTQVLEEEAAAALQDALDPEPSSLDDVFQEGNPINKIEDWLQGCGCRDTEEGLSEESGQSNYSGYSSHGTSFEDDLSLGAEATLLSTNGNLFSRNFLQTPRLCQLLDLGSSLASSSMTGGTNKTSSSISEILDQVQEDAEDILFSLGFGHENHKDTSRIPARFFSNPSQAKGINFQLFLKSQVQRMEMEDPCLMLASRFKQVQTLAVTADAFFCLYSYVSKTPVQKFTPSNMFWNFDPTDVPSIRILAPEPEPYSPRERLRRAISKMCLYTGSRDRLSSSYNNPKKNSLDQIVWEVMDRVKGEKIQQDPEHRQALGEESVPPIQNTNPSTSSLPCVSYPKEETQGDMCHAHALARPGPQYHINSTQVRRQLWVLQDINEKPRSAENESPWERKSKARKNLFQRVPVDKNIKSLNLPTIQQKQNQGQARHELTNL

[2] = target: T1, Flag-tagged full-length Tespa1 (FL) (mouse); experiment: co-IP; HEK293 cells co-transfected with Flag-tagged Tespa1 (FL or mutants) and the HA-tagged IP3R1 construct; IP with anti-Flag beads or with anti-HA antibodies plus protein G beads; blots with anti-Flag and anti-HA
[3] = target: T2, Tespa1 (two-hybrid fusion) (mouse) (UniProt Q3U132); experiment: two-hybrid; yeast two-hybrid system; Tespa1 against cloned signalling molecules of the LAT signalosome
T2 sequence: T1 sequence

| Substance | binding [1] | further results |
| --- | --- | --- |
| PLC-γ1-ΔX (from UniProt P19174) (enzyme) | binds |  |
| HA-tagged IP3R1-N (amino acids 1–610) (from UniProt P11881) (domain or fragment) |  | binding [2]: binds |
| X catalytic domain of PLC-γ1 (two-hybrid fusion) (domain or fragment) |  | binding [3]: binds |
| PLC-γ1-ΔY (from UniProt P19174) (enzyme) | binds |  |

These are yes or no findings as the source states them, for the method shown. A result given as binding can be weak or reduced; the word gives no strength. Tags and fused reporters may be left off the sequences shown. For some of these results: In cells and extracts the contact can be indirect.
